Data as given in PubChem BioAssay AID1053208 (Peter MacCallum Cancer Centre, 2014).
This is a random part of about 17,000 reagents. Of all reagents, 788 (4.7%) were called active. 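Calls rest on z-score classes alone; an extra cut-off of viability at most 70% of control was not applied to them.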 Unmarked entries are inactive. Reagents against one gene are numbered here.

Aim: 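Find knock-downs that sensitise mouse osteosarcoma cells to doxorubicin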 (primary screen)
Cells: mouse osteosarcoma cells, early-passage culture from an engineered mouse model of fibroblastic bone tumour
Knock-down reagent: siRNA pool against mouse genes, 40 nM
Time to read-out: about 120 h (48 h before drug, then 72 h with drug)
Treatment: doxorubicin 100 nM for 72 h, roughly 30-40% inhibitory dose
Read-out: 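Viability read as ATP luminescence after 72 h of 100 nM doxorubicin or none, duplicate wells averaged, scaled to non-targeting siRNA, then expressed as robust z-scores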
Scale: viability z-score with doxorubicin and doxorubicin viability vs non-targeting: higher = more viable cells under doxorubicin; viability z-score without drug: higher = more viable cells with knock-down alone; z-score of drug to no-drug ratio: higher = less drug sensitisation by knock-down
Hit rule: 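Called active if knock-down leaves viability unchanged without drug (z within -2 to 2) but lowers it with doxorubicin (z at or under -2)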

| gene knocked down | pool no. | combined z-score class | viability z-score with doxorubicin | viability z-score without drug | z-score of drug to no-drug ratio | doxorubicin viability vs non-targeting |
| --- | --- | --- | --- | --- | --- | --- |
| Slc35d2 | 1 | no change with or without drug | 0.45 | 0.17 | 0.45 | 0.98 |
| Or4c52 | 1 | no change with or without drug | -0.67 | -0.51 | -0.22 | 0.88 |
| Smc4 | 1 | no change with or without drug | 0.67 | 1.18 | 0 | 1 |
| Coro1a | 1 | no change with or without drug | 1.35 | 0 | 1.57 | 1.06 |
| Grap2 | 1 | no change with or without drug | 1.12 | 1.85 | 0 | 1.04 |
| Phospho1 | 1 | no change with or without drug | 1.57 | 0.84 | 1.12 | 1.08 |
| Uggt1 | 1 | no change with or without drug | -1.57 | -0.84 | -1.01 | 0.8 |
| Tmem120a | 1 | no change with or without drug | -0.22 | -1.18 | 0.79 | 0.92 |
| Dipk1b | 1 | no change with or without drug | 0.22 | 0.17 | 0.22 | 0.96 |
| Or4k5 | 1 | no change with or without drug | 1.01 | 1.85 | -0.11 | 1.03 |
| Nle1 | 1 | no change with or without drug | 0.11 | -0.67 | 0.67 | 0.95 |
| Krt9 | 1 | no change with or without drug | -0.45 | -1.01 | 0.34 | 0.9 |
| Ccdc87 | 1 | high cell count without drug only | 1.91 | 3.54 | -0.22 | 1.11 |
| Auts2 | 1 | no change with or without drug | -0.45 | 0.34 | -0.56 | 0.9 |
| Gm4884 | 1 | no change with or without drug | 0 | 0.17 | 0 | 0.94 |
| Ptpn3 | 1 | no change with or without drug | 1.01 | 0.17 | 1.01 | 1.03 |
| Ankrd6 | 1 | no change with or without drug | -0.45 | 1.01 | -1.01 | 0.9 |
| Cask | 1 | low cell count without drug only | 0.9 | -2.19 | 2.92 | 1.02 |
| Arrdc1 | 1 | no change with or without drug | -0.9 | 0.34 | -1.01 | 0.86 |
| Xbp1 | 1 | no change with or without drug | -0.67 | 0.34 | -0.79 | 0.88 |
| Emc8 | 1 | no change with or without drug | 0.56 | 0.34 | 0.45 | 0.99 |
| Dgat2 | 1 | no change with or without drug | 0.67 | 0.34 | 0.56 | 1 |
| Map3k7cl | 1 | no change with or without drug | 0.45 | -0.84 | 1.24 | 0.98 |
| Npffr2 | 1 | no change with or without drug | 0.11 | 0.67 | -0.22 | 0.95 |
| Or56a3 | 1 | no change with or without drug | -0.22 | -0.17 | 0 | 0.92 |
| Gng10 | 1 | no change with or without drug | 1.35 | 1.85 | 0.22 | 1.06 |

Next part (3 carried over from the part before).
| gene knocked down | pool no. | combined z-score class | viability z-score with doxorubicin | viability z-score without drug | z-score of drug to no-drug ratio | doxorubicin viability vs non-targeting |
| --- | --- | --- | --- | --- | --- | --- |
| Npffr2 | 1 | no change with or without drug | 0.11 | 0.67 | -0.22 | 0.95 |
| Or56a3 | 1 | no change with or without drug | -0.22 | -0.17 | 0 | 0.92 |
| Gng10 | 1 | no change with or without drug | 1.35 | 1.85 | 0.22 | 1.06 |
| Zc3h6 | 1 | no change with or without drug | 1.01 | -0.17 | 1.35 | 1.03 |
| Zc3h6 | 2 | no change with or without drug | 1.12 | -0.17 | 1.46 | 1.04 |
| Furin | 1 | no change with or without drug | -1.35 | -1.85 | 0 | 0.82 |
| Or51m1 | 1 | no change with or without drug | 0.67 | -0.67 | 1.35 | 1 |
| Agap3 | 1 | no change with or without drug | -1.57 | -0.84 | -1.01 | 0.8 |
| Rasgrf2 | 1 | no change with or without drug | 0 | -0.51 | 0.45 | 0.94 |
| Kiss1r | 1 | no change with or without drug | 0 | 1.85 | -1.01 | 0.94 |
| Cdkn2aip | 1 | no change with or without drug | -0.45 | 1.01 | -1.01 | 0.9 |
| Dscc1 | 1 | no change with or without drug | 0.9 | 1.18 | 0.22 | 1.02 |
| Tmem167 | 1 | no change with or without drug | 1.69 | 0.34 | 1.57 | 1.09 |
| Bloc1s4 | 1 | no change with or without drug | -0.56 | 1.52 | -1.35 | 0.89 |
| Fbh1 | 1 | no change with or without drug | -0.67 | 0.34 | -0.79 | 0.88 |
| Pla2g4b | 1 | no change with or without drug | 0 | 1.35 | -0.79 | 0.94 |
| Rhog | 1 | no change with or without drug | 0.67 | 1.01 | 0.11 | 1 |
| Cited1 | 1 | no change with or without drug | -1.12 | -1.01 | -0.45 | 0.84 |
| Cacna1c | 1 | no change with or without drug | 0.9 | 0.17 | 0.9 | 1.02 |
| Tnfrsf11a | 1 | no change with or without drug | -0.45 | 0.67 | -0.79 | 0.9 |
| Fam24a | 1 | no change with or without drug | -0.45 | 1.85 | -1.46 | 0.9 |
| Zscan20 | 1 | no change with or without drug | -1.8 | 0.34 | -2.02 | 0.78 |
| Ifna6 | 1 | high cell count with and without drug | 3.04 | 3.37 | 0.79 | 1.21 |
| Epm2aip1 | 1 | no change with or without drug | 0 | -0.51 | 0.45 | 0.94 |
| Acp1 | 1 | low cell count with and without drug | -2.36 | -2.19 | -1.01 | 0.73 |
| Dock1 | 1 | no change with or without drug | -0.45 | -0.84 | 0.22 | 0.9 |
| Chd4 | 1 | no change with or without drug | 0.56 | -1.01 | 1.46 | 0.99 |
